The source of these data is the supplement of paper PMC7752906.

SMILES strings stand for the structures. Counter-ions that a name gives are not always drawn. The list shows a part of the results. This data set is noisy: repeats of one test often differ as much as different tests do.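 Test system: Schistosoma mansoni schistosomula, roughly 40 per well, imaged in bright field over time and compared with wells given 0.1% DMSO. Distance read-out: the paper calls a drug a hit when its Mahalanobis distance is at least 2.47, three standard deviations above the DMSO control mean. Degeneracy is the share of worms classified opaque.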

The test system of the experiment is Schistosoma mansoni schistosomula. Kind of experiment: Mahalanobis distance of static-rate-frequency phenotype descriptors from DMSO controls (dimensionless); higher = stronger phenotypic change versus DMSO. The settings on record: 10 µM; 72 h.
Regarding `CC(=O)OCC1=C(C(=O)O)N2C(=O)[C@@H](NC(=O)Cc3cccs3)[C@H]2SC1` [Cephalothin Sodium], the Mahalanobis distance is inactive: 1.73.
As for `CCOc1ccc(NC(=O)CC(C)O)cc1` (centres undefined) [Bucetin], the Mahalanobis distance was inactive: 1.32.
For `Clc1ccc(C(Cn2ccnc2)OCc2csc3c(Cl)cccc23)c(Cl)c1` (centres undefined) [Sertaconazole Nitrate] the value was inactive: 1.9.
With `Cc1nc2n(c(=O)c1CCN1CCC(c3noc4cc(F)ccc34)CC1)CCCC2O` (centres undefined) [Paliperidone], the Mahalanobis distance was inactive: 2.12.
Turning to `O=C1CCC(N2C(=O)c3ccccc3C2=O)C(=O)N1` (centres undefined) [Thalidomide], the Mahalanobis distance is inactive: 2.28.
On to `COc1c2ccoc2cc2oc(=O)ccc12` [Bergapten], for which the Mahalanobis distance is active: 3.14.
With `O=C1CCc2ccc(OCCCCN3CCN(c4cccc(Cl)c4Cl)CC3)cc2N1` [aripiprazole], the Mahalanobis distance was inactive: 1.83.
With `CN(C)CCOC(c1ccc(Cl)cc1)c1ccccn1` (centres undefined) [Carbinoxamine] the figure was inactive: 1.38; with `Cc1ccccc1C(OCCN(C)C)c1ccccc1` (centres undefined) [Orphenadrine], active: 2.78.
For `CN1CCN(c2c(F)cc3c(=O)c(C(=O)O)cn4c3c2SCC4)CC1` [Rufloxacin Hydrochloride], the Mahalanobis distance is inactive: 2.09.
On to `COC(=O)C1=C(C)NC(C)=C(C(=O)OCCN(C)Cc2ccccc2)C1c1cccc([N+](=O)[O-])c1` (centres undefined) [nicardipine], for which the Mahalanobis distance was active: 2.63.
On to `COC(=O)C1=C(C)NC(C)=C(C(=O)OCC(C)C)C1c1ccccc1[N+](=O)[O-]` (centres undefined) [Nisoldipine], for which the Mahalanobis distance was inactive: 1.93.
On to `CC(O)(P(=O)(O)O)P(=O)(O)O` [Etidronate Disodium], for which the Mahalanobis distance was inactive: 1.57.
With `O=C1[C@H](CC[C@H](O)c2ccc(F)cc2)[C@@H](c2ccc(O)cc2)N1c1ccc(F)cc1` [Ezetimibe] the figure was inactive: 1.99.
With `O=S(=O)(O)c1cc(I)c(O)c2ncccc12` [Chiniofon] the figure was inactive: 1.26.
On to `O=C(O)COCCN1CCN([C@H](c2ccccc2)c2ccc(Cl)cc2)CC1` [Levocetirizine Dihydrochloride], for which the Mahalanobis distance is active: 2.64.
In the case of `CN1CCC(=C2c3ccccc3CCc3sccc32)CC1` [Pizotyline Malate], the Mahalanobis distance was active: 2.77.
As for `CN1CCOC(c2ccccc2)c2ccccc2C1` (centres undefined) [Nefopam], the Mahalanobis distance is active: 4.07.
With `CCCCCOC(=O)Nc1nc(=O)n([C@@H]2O[C@H](C)[C@@H](O)[C@H]2O)cc1F` [Capecitabine], the Mahalanobis distance was active: 2.47.
For `CCCCNc1ccc(C(=O)OCCN(C)C)cc1` [Tetracaine], the Mahalanobis distance was active: 3.19.
`CCN(CC)CCOc1ccc(C(=C(Cl)c2ccccc2)c2ccccc2)cc1` [clomiphene]: the Mahalanobis distance was inactive: 2.17.
For `O=C(O)C1(C(=O)O)CCC1.[NH2-].[NH2-].[Pt+2]` [Carboplatin] the value was inactive: 1.9; for `Cc1cnc(C(=O)O)c[n+]1[O-]` [Acipimox], inactive: 1.51.
Turning to `CC(=O)Nc1cccc(O)c1` [3-acetamidophenol], the Mahalanobis distance was inactive: 1.25.
For `CC1CCCC(C)N1` (centres undefined) [Nanofin] the value was active: 2.52.
As for `COc1ccc(C(=O)c2ccccc2O)c(O)c1` [Dioxybenzone], the Mahalanobis distance was inactive: 2.27.
As to `COc1ccc(CN2CCN(C(c3ccc(F)cc3)c3ccc(F)cc3)CC2)c(OC)c1OC` [lomerizine], the Mahalanobis distance was active: 4.64.
For `OCc1ccccn1` [Piconol], the Mahalanobis distance is inactive: 1.44.
`O=C(O)c1ccccc1` [Benzoic Acid]: the Mahalanobis distance was inactive: 1.54.
In the case of `CCCCC[C@H](O)/C=C/[C@H]1[C@H](O)CC(=O)[C@@H]1CCCCCCC(=O)O` [Alprostadil], the Mahalanobis distance was inactive: 1.83.
Take `CC(=O)Nc1ccc(C(=O)O)cc1` [Acedoben]: the Mahalanobis distance is inactive: 1.74.
On to `COc1cc2ncnc(Nc3ccc(F)c(Cl)c3)c2cc1OCCCN1CCOCC1` [Gefitinib], for which the Mahalanobis distance was inactive: 2.38.
`CCOc1ccc(NC(C)=O)cc1` [Phenacetin]: the Mahalanobis distance was active: 2.86.
For `CC(C)(C)NCC(O)c1cc(O)cc(O)c1` (centres undefined) [Terbutaline] the value was inactive: 1.92; for `C=C(c1ccc(C(=O)O)cc1)c1cc2c(cc1C)C(C)(C)CCC2(C)C` [Bexarotene], inactive: 1.36; for `C#C[C@]1(O)CC[C@H]2[C@@H]3CCC4=C(CCC(=O)C4)[C@H]3CC[C@@]21C` [Norethynodrel], active: 3.51.
In the case of `CC/C(=C(\c1ccccc1)c1ccc(OCCN(C)C)cc1)c1ccccc1` [tamoxifen], the Mahalanobis distance is inactive: 2.45.
For the compound `CN[C@@H]1[C@H](O[C@H]2[C@H](O[C@H]3[C@H](O)[C@@H](O)[C@H](NC(=N)N)[C@@H](O)[C@@H]3NC(=N)N)O[C@@H](C)[C@]2(O)CO)O[C@@H](CO)[C@H](O)[C@H]1O` [Dihydrostreptomycin Sulfate], the Mahalanobis distance was inactive: 2.18.
With `NCc1ccc(S(N)(=O)=O)cc1` [Mafenide Hydrochloride] the figure was inactive: 2.36.
